Test [1] concerns the target TEAD1, endogenous in mouse vascular smooth muscle cells (mouse (endogenous in primary mouse VSMCs)) (UniProt P30051). Nature of the test: co-IP; endogenous proteins in VSMC lysates (IP lysis buffer); primary antibody overnight at 4 °C, protein A/G beads 2 h at room temperature, anti-IgG as control, Western blot; anti-YAP antibody for OTUB2/YAP.
Test [2] has as its target Yes-associated protein (YAP), endogenous in mouse vascular smooth muscle cells (mouse (endogenous in primary mouse VSMCs)) (UniProt P46938). In words: co-IP; endogenous proteins in separated nuclear and cytoplasmic protein fractions of VSMCs.
Test [3] shares this target. Nature of the test: co-IP; endogenous proteins in VSMC lysates (IP lysis buffer); primary antibody overnight at 4 °C, protein A/G beads 2 h at room temperature, anti-IgG as control, Western blot; anti-YAP antibody for OTUB2/YAP. (In general: Immunoblotting shows a protein as a band on a membrane.)

Chains of the proteins cited; added tags and fusions are not shown.
UniProt P30051: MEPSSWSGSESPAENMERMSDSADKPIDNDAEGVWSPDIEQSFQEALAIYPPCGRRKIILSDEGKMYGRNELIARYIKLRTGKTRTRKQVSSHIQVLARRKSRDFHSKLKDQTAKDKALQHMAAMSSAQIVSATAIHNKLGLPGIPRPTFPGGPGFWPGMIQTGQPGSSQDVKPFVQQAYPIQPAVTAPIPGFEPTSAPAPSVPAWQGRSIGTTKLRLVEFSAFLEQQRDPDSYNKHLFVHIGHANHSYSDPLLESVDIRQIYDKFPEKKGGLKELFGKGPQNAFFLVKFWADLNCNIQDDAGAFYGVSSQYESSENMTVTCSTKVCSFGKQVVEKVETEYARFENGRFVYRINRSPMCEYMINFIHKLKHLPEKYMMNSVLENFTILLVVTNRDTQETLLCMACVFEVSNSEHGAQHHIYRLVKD
UniProt P46938: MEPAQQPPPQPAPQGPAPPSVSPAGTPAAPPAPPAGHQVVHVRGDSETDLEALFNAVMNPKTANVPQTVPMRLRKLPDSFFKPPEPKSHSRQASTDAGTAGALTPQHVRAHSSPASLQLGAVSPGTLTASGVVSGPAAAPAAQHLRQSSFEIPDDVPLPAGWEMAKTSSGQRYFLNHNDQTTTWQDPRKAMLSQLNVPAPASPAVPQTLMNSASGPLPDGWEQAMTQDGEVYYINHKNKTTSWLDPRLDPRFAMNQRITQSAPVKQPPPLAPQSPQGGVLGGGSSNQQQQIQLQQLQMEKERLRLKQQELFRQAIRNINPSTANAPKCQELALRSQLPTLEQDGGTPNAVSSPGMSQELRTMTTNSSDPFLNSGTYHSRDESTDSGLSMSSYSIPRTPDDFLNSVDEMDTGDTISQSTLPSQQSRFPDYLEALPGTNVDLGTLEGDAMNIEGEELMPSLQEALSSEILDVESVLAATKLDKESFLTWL

No constants are given. Whether binding was seen depends on the method and setting. In cells and extracts the contact can be indirect. Some entries that bind do so weakly or less than the wild type.

With “Yes-associated protein (YAP), endogenous in mouse vascular smooth muscle cells (from UniProt P46938 1-488)”, in test [1], the binding result is listed as “binds”.

B1: Otubain-2 (OTUB2), endogenous in mouse vascular smooth muscle cells (enzyme, UniProt Q9CQX0 1-234)
chain: MSETSFNLISEKCDILSILRDHPENRIYQRKIQELSKRFTSIRKTKGDGNCFYRALGYSYLESLLGKSREILKFKERVLQTPNDLLAAGFEEHKFRNFFNAFYSVVELVEKDSSVSSLLKVFNDQSSSDRIVQFLRLLTSAFIRNRADFFRHFIDEEMDIKDFCTHEVEPMAMECDHVQITALSQALNIALQVEYVDEMDTALNHHVFPEAAIPSVYLLYKTSHYNILYAAEKH
For B1, the binding result in test [2] and in test [3] was “binds” in each case.

(Values after paper PMC11700865.)
